Source: doi:10.1371/journal.pone.0140310, primary screening data, rounded.

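The test systems are human melanoma cell lines, treated with a pair of drugs for 72 h and then stained and imaged. Each value is the count of nuclei relative to DMSO-treated wells, in %, so that 100 equals the control. Every drug was used at one fixed concentration, the higher of two screened. No replicate spread is given; individual values may be noisy.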
This is part of the screen, not chosen by result.

Drug key:
OSU-03012, 5 µM: NCC(=O)Nc1ccc(-n2nc(C(F)(F)F)cc2-c2ccc3c(ccc4ccccc43)c2)cc1
YM155, 0.002 µM: COCC[n+]1c2c(n(Cc3cnccn3)c1C)C(=O)c1ccccc1C2=O
perifosine, 2 µM: CCCCCCCCCCCCCCCCCCOP(=O)([O-])OC1CC[N+](C)(C)CC1
FK866, 0.05 µM: O=C(/C=C/c1cccnc1)NCCCCC1CCN(C(=O)c2ccccc2)CC1
CP-690550, 5 µM: C[C@@H]1CCN(C(=O)CC#N)C[C@@H]1N(C)c1ncnc2[nH]ccc12
fingolimod, 10 µM: CCCCCCCCc1ccc(CCC(N)(CO)CO)cc1
MK-2206, 2 µM: NC1(c2ccc(-c3nc4ccn5c(=O)[nH]nc5c4cc3-c3ccccc3)cc2)CCC1
nutlin-3, 0.5 µM: COc1ccc(C2=N[C@@H](c3ccc(Cl)cc3)[C@@H](c3ccc(Cl)cc3)N2C(=O)N2CCNC(=O)C2)c(OC(C)C)c1
dovitinib, 0.5 µM: CN1CCN(c2ccc3nc(-c4c(N)c5c(F)cccc5[nH]c4=O)[nH]c3c2)CC1
cisplatin, 8 µM: N.N.[Cl][Pt][Cl]
Src-I1, 10 µM: COc1cc2ncnc(Nc3ccc(Oc4ccccc4)cc3)c2cc1OC
lestaurtinib, 0.02 µM: C[C@]12O[C@H](C[C@]1(O)CO)n1c3ccccc3c3c4c(c5c6ccccc6n2c5c31)CNC4=O
CHIR-265, 0.4 µM: Cn1c(Nc2ccc(C(F)(F)F)cc2)nc2cc(Oc3ccnc(-c4ncc(C(F)(F)F)[nH]4)c3)ccc21
RKI-983, 2 µM: C[C@@H](N)c1ccc(C(=O)Nc2ccnc3[nH]ccc23)cc1
everolimus, 0.1 µM: CO[C@H]1C[C@@H]2CC[C@@H](C)[C@@](O)(O2)C(=O)C(=O)N2CCCC[C@H]2C(=O)O[C@H]([C@H](C)C[C@@H]2CC[C@@H](OCCO)[C@H](OC)C2)CC(=O)[C@H](C)/C=C(\C)[C@@H](O)[C@@H](OC)C(=O)[C@H](C)C[C@H](C)/C=C/C=C/C=C/1C
CX-4945, 2 µM: O=C(O)c1ccc2c(c1)nc(Nc1cccc(Cl)c1)c1ccncc12
SNS-032, 0.05 µM: CC(C)(C)c1cnc(CSc2cnc(NC(=O)C3CCNCC3)s2)o1
sorafenib, 2 µM: CNC(=O)c1cc(Oc2ccc(NC(=O)Nc3ccc(Cl)c(C(F)(F)F)c3)cc2)ccn1
dasatinib, 0.02 µM: Cc1nc(Nc2ncc(C(=O)Nc3c(C)cccc3Cl)s2)cc(N2CCN(CCO)CC2)n1

| # | Combination | WM3619 |
|---|---|---|
| 1 | CP-690550 + FK866 | 67.2 |
| 2 | everolimus + Src-I1 | 70.9 |
| 3 | sorafenib + perifosine | 99.4 |
| 4 | everolimus + CHIR-265 | 41.4 |
| 5 | CX-4945 + perifosine | 84.2 |
| 6 | OSU-03012 + CP-690550 | 15.2 |
| 7 | FK866 + perifosine | 95.3 |
| 8 | Src-I1 + fingolimod | 0.7 |
| 9 | perifosine + lestaurtinib | 80.1 |
| 10 | perifosine + everolimus | 62.4 |
| 11 | SNS-032 + nutlin-3 | 66.9 |
| 12 | perifosine + cisplatin | 80.5 |
| 13 | cisplatin + RKI-983 | 87.5 |
| 14 | perifosine + dovitinib | 68.5 |
| 15 | RKI-983 + sorafenib | 86.9 |
| 16 | RKI-983 + MK-2206 | 112 |
| 17 | Src-I1 + CP-690550 | 64.0 |
| 18 | dasatinib + RKI-983 | 81.2 |
| 19 | YM155 + CP-690550 | 104 |
| 20 | CX-4945 + SNS-032 | 37.0 |

Some entries from above, unchanged:

- sorafenib + perifosine | WM3619: 99.4
- OSU-03012 + CP-690550 | WM3619: 15.2